# In article PMC5853860:
# Target: OsCV-Venus^N (Oryza sativa)
# Experiment: split reporter; BiFC: OsCV-Venus^N and OsGS2-SCFP^C transiently co-expressed in Nicotiana benthamiana leaves; confocal microscopy 2-4 d after infiltration
binder,measurement,value
"OsGS2-SCFP^C (enzyme, UniProt P14655 49-428) VSTETTGVVTRMEQLLNMDTTPFTDKIIAEYIWVGGTGIDLRSKSRTISKPVEDPSELPKWNYDGSSTGQAPGEDSEVILYPQAIFKDPFRGGNNILVMCDTYTPAGEPIPTNKRNRAAQVFSDPKVVSQVPWFGIEQEYTLLQRDVNWPLGWPVGGYPGPQGPYYCAVGSDKSFGRDISDAHYKACLYAGINISGTNGEVMPGQWEYQVGPSVGIEAGDHIWISRYILERITEQAGVVLTLDPKPIQGDWNGAGCHTNYSTKSMREDGGFEVIKKAILNLSLRHDLHISAYGEGNERRLTGLHETASIDNFSWGVANRGCSIRVGRDTEAKGKGYLEDRRPASNMDPYVVTALLAETTILWEPTLEAEVLAAKKLALKV",binding,binds

# These are yes or no findings as the source states them, for the method shown. Binding seen in cells or lysates may run through a third protein. Binding calls can cover weak binding; strength is not graded here. Where a sequence is shown, tags or fusion partners need not be part of it.
